Experimental data as given in PubChem BioAssay AID651602 (The Scripps Research Institute Molecular Screening Center, 2012).
The list shows a part of the results, in another mix than the full data. Active and inactive are the calls of the source. Cut-off read from the data, not from the text of the source: active = inhibition above about 11%; inactive = the rest.

experiment: reduced absorbance of E. coli cultures with phage – HTS, RecBCD inhibitor project, primary screen (AID 651602); details: growth absorbance, at 11.9 µM, hits give high values

inhibition, active:
O=C1OCCN1/N=C/c1ccc([N+](=O)[O-])o1 99.7%
CCn1cc(C(=O)O)c(=O)c2cc(F)c(N3CCN(C)CC3)cc21 103%
O=C(N/N=C/c1ccc(O)c2ncccc12)c1cccc(Br)c1 18.1%
